Results on 30 molecules are retold here after the supplement of paper PMC12889115.

SMILES strings stand for the structures. This is one part of the list. These are raw signals, not scaled to a control.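 First-pass screen: polymyxin B was added at a level that permeabilizes the Salmonella outer membrane while sparing the inner membrane. DMSO wells, with and without polymyxin B, defined maximum growth. Because plates differed from one another, each plate's data were ranked separately and the compounds with the lowest OD600 were carried forward as hits.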

This test deals with Salmonella enterica serovar Typhimurium SL1344. The experiment in a line: bacterial growth OD600 after 18 h with compound and polymyxin B; higher = more bacterial growth (less inhibition). Particulars: 50 µM, Mueller-Hinton broth.

For `Cc1ccc2[nH]c(CN(C)C(=O)C3CCC(=O)N(C4CCCCCC4)C3)nc2c1` (stereo not given), the “bacterial growth OD600” value (polymyxin B 1 µg/mL) was found to be 1.19.

Turning to `O=C(c1ccc(N2CCCCCCC2)nc1)N1CCC(Cn2cccn2)CC1`, the “bacterial growth OD600” value (polymyxin B 1 µg/mL) came out at 0.645.

Take `OC1CCCN(CCCNc2nncc(-c3cccc(Cl)c3)n2)C1` (stereo not given): under “polymyxin B 0.75 µg/mL”, the “bacterial growth OD600” value was determined as 0.772.

Consider `CCNC(=O)c1cn(CC(C)C)cc(C(=O)NCCC(C)C)c1=O`, for which the “bacterial growth OD600” value (polymyxin B 0.75 µg/mL) stood at 0.728.

Turning to `O=C1CCC(C(=O)N2CCC(CCn3cccn3)CC2)CN1Cc1ccccn1` (stereo not given), the “bacterial growth OD600” value (polymyxin B 1 µg/mL) amounted to 0.939.

`CC(=O)NCCNc1ccc(-c2nc(-c3ccccc3F)no2)cn1`: the “bacterial growth OD600” value (polymyxin B 1 µg/mL) was 1.18.

With `CC(=O)Nc1cc(C(=O)NCc2nc(-c3ccccc3)cs2)cc2ncn(CCc3ccccn3)c12`, the “bacterial growth OD600” value (polymyxin B 0.75 µg/mL) came out at 0.906.

As for `O=C(Cc1cccnc1)N1CCc2onc(-c3ccc(F)c(F)c3)c2C1`, for the setting “polymyxin B 0.75 µg/mL”, the “bacterial growth OD600” value is 0.724.

For the molecule `COc1cccc(O)c1CN1CCCC(c2[nH]ncc2CC(C)C)C1` (stereo not given), the “bacterial growth OD600” value (polymyxin B 0.75 µg/mL) worked out at 0.574.

For `O=C(CCC1CCCN(Cc2ccc(-n3cccn3)cc2)C1)NC1CC1` (stereo not given), the “bacterial growth OD600” value (polymyxin B 1 µg/mL) was determined as 0.953.

With `O=C(CCC(F)(F)F)N1CCOc2ccc(C(O)C(c3ccccc3)c3ccccc3)cc2C1` (stereo not given), the “bacterial growth OD600” value (polymyxin B 0.75 µg/mL) is 0.601.

For `COCCC(=O)NC1CC(C)(C)Cc2nc(C(C)(C)C)ncc21` (stereo not given), for the setting “polymyxin B 1 µg/mL”, the “bacterial growth OD600” value was determined as 0.88.

Take `COc1ccc(CC(=O)NCC2CCCN(Cc3cccc(SC)c3)C2)cc1` (stereo not given): the “bacterial growth OD600” value (polymyxin B 1 µg/mL) was found to be 0.797.

`O=C1CCC(CCC(=O)N2CCCC2c2ccc(F)cc2)(Cc2ccc3ccccc3c2)N1` (stereo not given): under “polymyxin B 0.75 µg/mL”, the “bacterial growth OD600” value was 0.679.

`O=C1CCCN1CC(=O)N1CCCC(CCc2ccccc2)C1` (stereo not given): for the setting “polymyxin B 0.75 µg/mL”, the “bacterial growth OD600” value was determined as 0.622.

For `O=C(NCC1CC1)C1CCCN(C2CCN(Cc3ccccc3)CC2)C1` (stereo not given), the “bacterial growth OD600” value (polymyxin B 0.75 µg/mL) was found to be 0.897.

Consider `COc1cccc(-c2noc(-c3ccc(N4CCN(C(C)C)CC4)nc3)n2)c1OC`, for which the “bacterial growth OD600” value (polymyxin B 0.75 µg/mL) is 0.511.

On to `COc1ccc(CC(=O)N2CCC3(CCCN(CC(C)(C)C)C3=O)C2)cc1` (stereo not given), for which the “bacterial growth OD600” value (polymyxin B 1 µg/mL) came to 0.812.

`O=C(NC1CC1)C1CCCN(C2CCN(C(=O)CCC3CCCC3)CC2)C1` (stereo not given): the “bacterial growth OD600” value (polymyxin B 0.75 µg/mL) was 0.858.

As to `COc1ccc(NC(=O)CCC2CCCN(C(=O)c3cc(C)[nH]n3)C2)cc1Cl` (stereo not given), the “bacterial growth OD600” value (polymyxin B 1 µg/mL) stood at 0.995.

In the case of `CCOC(=O)C1(CCCc2ccccc2)CCN(C(=O)CCc2cnn(C)c2)CC1`, where the note is “polymyxin B 1 µg/mL”, the “bacterial growth OD600” value amounted to 0.873.

On to `Cn1ccnc1CN1CCC(CCC(=O)Nc2ccccc2Cl)CC1`, for which, under “polymyxin B 1 µg/mL”, the “bacterial growth OD600” value turned out to be 0.907.

As to `O=C(CCn1cnnn1)N1CCCC(CCc2cccc(C(F)(F)F)c2)C1` (stereo not given), the “bacterial growth OD600” value (polymyxin B 0.75 µg/mL) came to 0.178.

Regarding `O=C1CCCCN1CCCC(=O)N1CCCC(CCc2ccccc2)C1` (stereo not given), the “bacterial growth OD600” value (polymyxin B 0.75 µg/mL) was determined as 0.826.

For `CCCCN(Cc1ccccc1)C(=O)COc1ccc(N2CCN(c3ccccn3)CC2)nn1`, the “bacterial growth OD600” value (polymyxin B 0.75 µg/mL) was 0.014.

For the molecule `CCn1nc(C)cc1C(=O)N1CCC(CCC(=O)Nc2ccc3c(c2)OCCO3)CC1`, the “bacterial growth OD600” value (polymyxin B 1 µg/mL) is 0.919.

`CN(Cc1cc(C2CC2)[nH]n1)c1ccc(-c2nc(C3CC3)no2)cn1`: the “bacterial growth OD600” value (polymyxin B 0.75 µg/mL) was found to be 0.542.

Consider `COc1ccccc1C(=O)N1CCC2(CCCN(CC3CC3)C2=O)C1` (stereo not given), for which the “bacterial growth OD600” value (polymyxin B 1 µg/mL) was 0.992.

In the case of `COc1cc(CN2CCC3(CC2)CC3C(=O)N(C)CCOc2ccc(C)cc2)cc(OC)c1OC` (stereo not given), the “bacterial growth OD600” value (polymyxin B 0.75 µg/mL) was 1.06.

As to `COCCNC(=O)c1ccc(OC2CCN(C/C=C/c3ccco3)CC2)c(Cl)c1`, under “polymyxin B 1 µg/mL”, the “bacterial growth OD600” value came to 1.1.
